In this assay the target is GPR119 (Homo sapiens, UniProt Q8TDV5). Kind of assay: Controlling Effect of GPR119 in CRE-bla CHO-K1 Cells (EC50). Conditions: read-out: controlling effect against GPR119 in CRE-bla CHO-K1 cell line (EC50), 5 hr incubation with compound, β-lactamase LiveBLAzer-FRET B/G readout. As for the experimental part:
Controlling Effect of GPR119 in CRE-bla CHO-K1 Cells (EC50)
The day before the experiment, GPR119 CRE-bla CHO-K1 cell line purchased from Invitrogen was seeded in a 96 black well plate in an amount of 80 μl at a density of 5×10^4 cells. After the seeding, 10 μl of doxycycline in a concentration of 1 μg/ml was added to each well and incubated in an incubator at 37° C. under 5% CO2 for about 16 to 20 hr.
The day of experiment, sample compounds were performed a 10-fold serial dilution with a culture medium at various concentrations of 1 uM to […]. Considering that the culture medium used in the seeding and doxycycline are together applied, the sample compounds were diluted to a 5-fold dilution of the planned concentration. 20 μl of the compound diluted with the culture medium was added to each well and incubated in the incubator for 5 hr. The compound-untreated group was added with 20 μl of 0.5% dimethyl sulfoxide (DMSO) diluted with the culture medium. […] Fluorescence intensity value of blue channel and green channel was determined by a fluorescence microplate reader at 409 nm/460 nm and 409 nm/[…] (excitation/emission), respectively. In order to confirm the controlling effect of the inventive compounds against GPR119, EC50 (half maximal effective concentration) was determined based on the determined values. […]

Amino acid sequences for entries named in this document (tags omitted).
UniProt Q8TDV5, whole entry: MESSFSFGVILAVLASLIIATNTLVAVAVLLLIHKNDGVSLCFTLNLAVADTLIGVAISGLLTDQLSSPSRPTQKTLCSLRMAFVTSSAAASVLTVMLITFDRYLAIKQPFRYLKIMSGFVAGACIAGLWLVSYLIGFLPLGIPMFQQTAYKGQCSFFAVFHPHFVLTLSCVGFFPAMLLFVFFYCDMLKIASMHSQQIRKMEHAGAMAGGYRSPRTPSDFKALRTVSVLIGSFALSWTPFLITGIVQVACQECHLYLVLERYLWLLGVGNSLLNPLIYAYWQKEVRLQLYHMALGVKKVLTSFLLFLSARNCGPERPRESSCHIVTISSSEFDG

pEC50: −log10 of the molar value. The match of structure and compound is tentative.

For `CC(C)c1nc(N2CCC(N(C)c3ncnc4c(-c5ccc(S(C)(=O)=O)cc5)csc34)CC2)no1`, the pEC50 was 6.00 to 7.00.

For the origin of these results see patent publication US8853213B2, “Bicyclic compound for modulating G protein-coupled receptors” (Hanmi Pharm. Co., Ltd, priority 2011, dated 2014).
